Results as given in the supplement of paper PMC12067093, “Discovery and optimisation of a covalent ligand for TRIM25 and its application to targeted protein ubiquitination” (Chemical Science, 2025).
The other results are listed elsewhere or left out.

Protein sequences, listed by entry. Tags and fused reporters are not part of them. Lines headed by an entry give the natural chain unless they say otherwise; changes in a name come on top.
UniProt P51858: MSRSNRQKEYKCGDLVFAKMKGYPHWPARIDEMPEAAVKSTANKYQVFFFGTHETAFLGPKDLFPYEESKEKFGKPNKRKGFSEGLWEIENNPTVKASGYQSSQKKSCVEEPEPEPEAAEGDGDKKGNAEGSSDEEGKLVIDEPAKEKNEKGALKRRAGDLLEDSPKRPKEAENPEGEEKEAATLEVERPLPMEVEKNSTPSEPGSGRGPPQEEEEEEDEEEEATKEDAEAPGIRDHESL
UniProt Q7Z4H7: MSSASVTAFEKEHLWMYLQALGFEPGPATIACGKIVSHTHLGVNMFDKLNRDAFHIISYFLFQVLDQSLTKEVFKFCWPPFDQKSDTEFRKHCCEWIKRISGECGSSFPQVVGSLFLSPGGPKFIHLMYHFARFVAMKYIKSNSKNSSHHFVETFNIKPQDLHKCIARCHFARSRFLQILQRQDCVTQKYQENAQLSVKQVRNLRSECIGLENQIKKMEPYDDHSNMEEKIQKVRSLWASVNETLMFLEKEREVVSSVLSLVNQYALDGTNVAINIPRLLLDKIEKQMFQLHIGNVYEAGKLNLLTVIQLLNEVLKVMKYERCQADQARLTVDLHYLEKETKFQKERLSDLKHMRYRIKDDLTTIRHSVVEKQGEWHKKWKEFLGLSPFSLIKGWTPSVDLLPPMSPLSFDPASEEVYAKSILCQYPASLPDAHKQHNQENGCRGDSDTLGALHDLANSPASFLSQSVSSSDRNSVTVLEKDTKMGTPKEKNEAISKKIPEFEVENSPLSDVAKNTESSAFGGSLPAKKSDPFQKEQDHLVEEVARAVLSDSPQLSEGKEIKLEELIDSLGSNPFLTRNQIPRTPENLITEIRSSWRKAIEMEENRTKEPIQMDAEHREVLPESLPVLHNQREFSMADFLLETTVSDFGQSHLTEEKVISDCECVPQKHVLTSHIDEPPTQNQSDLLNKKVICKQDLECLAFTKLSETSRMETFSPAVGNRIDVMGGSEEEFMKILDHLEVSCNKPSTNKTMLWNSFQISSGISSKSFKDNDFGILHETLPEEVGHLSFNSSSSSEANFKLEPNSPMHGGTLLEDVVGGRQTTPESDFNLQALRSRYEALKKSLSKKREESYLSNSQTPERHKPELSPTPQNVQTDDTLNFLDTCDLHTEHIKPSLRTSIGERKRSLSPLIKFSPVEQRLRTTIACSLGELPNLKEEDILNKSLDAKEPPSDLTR
UniProt Q8NG08: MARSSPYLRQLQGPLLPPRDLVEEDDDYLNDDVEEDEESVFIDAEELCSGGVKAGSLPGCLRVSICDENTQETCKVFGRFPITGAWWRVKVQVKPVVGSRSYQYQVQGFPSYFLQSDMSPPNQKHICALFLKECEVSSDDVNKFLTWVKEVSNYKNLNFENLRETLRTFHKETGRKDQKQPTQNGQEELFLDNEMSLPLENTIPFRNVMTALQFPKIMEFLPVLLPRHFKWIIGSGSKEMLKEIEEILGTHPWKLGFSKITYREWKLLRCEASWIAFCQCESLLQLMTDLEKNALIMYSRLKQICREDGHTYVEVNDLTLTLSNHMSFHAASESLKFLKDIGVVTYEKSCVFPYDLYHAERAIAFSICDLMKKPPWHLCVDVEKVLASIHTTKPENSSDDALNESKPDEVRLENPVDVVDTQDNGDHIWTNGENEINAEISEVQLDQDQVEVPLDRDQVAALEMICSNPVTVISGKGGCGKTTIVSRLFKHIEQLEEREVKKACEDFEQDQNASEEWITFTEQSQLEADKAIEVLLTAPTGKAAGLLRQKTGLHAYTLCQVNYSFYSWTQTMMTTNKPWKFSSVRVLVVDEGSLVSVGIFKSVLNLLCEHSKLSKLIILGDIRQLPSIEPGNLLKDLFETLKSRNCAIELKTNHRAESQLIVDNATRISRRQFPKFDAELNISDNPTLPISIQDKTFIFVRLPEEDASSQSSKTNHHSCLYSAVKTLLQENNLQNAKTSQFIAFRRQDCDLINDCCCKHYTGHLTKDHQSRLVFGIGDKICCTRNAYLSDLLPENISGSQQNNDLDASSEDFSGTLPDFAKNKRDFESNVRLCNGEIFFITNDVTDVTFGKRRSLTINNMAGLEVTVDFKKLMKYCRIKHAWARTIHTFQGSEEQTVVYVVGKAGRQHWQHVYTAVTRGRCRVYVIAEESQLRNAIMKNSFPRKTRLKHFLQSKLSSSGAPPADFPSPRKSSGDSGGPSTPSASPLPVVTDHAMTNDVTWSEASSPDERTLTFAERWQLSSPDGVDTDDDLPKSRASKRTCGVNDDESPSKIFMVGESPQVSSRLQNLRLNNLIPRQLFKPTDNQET
UniProt Q9BW72: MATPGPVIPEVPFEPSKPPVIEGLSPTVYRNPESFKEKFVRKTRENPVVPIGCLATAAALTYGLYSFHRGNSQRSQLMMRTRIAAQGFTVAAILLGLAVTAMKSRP
UniProt P53701: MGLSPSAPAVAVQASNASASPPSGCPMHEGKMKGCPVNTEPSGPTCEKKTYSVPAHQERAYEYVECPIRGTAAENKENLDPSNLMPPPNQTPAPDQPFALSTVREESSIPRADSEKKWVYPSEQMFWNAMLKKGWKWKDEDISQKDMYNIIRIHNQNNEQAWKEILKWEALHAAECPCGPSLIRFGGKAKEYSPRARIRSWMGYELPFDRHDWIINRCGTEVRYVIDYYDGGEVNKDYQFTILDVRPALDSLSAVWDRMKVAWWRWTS
UniProt Q9Y450, whole entry, looked up: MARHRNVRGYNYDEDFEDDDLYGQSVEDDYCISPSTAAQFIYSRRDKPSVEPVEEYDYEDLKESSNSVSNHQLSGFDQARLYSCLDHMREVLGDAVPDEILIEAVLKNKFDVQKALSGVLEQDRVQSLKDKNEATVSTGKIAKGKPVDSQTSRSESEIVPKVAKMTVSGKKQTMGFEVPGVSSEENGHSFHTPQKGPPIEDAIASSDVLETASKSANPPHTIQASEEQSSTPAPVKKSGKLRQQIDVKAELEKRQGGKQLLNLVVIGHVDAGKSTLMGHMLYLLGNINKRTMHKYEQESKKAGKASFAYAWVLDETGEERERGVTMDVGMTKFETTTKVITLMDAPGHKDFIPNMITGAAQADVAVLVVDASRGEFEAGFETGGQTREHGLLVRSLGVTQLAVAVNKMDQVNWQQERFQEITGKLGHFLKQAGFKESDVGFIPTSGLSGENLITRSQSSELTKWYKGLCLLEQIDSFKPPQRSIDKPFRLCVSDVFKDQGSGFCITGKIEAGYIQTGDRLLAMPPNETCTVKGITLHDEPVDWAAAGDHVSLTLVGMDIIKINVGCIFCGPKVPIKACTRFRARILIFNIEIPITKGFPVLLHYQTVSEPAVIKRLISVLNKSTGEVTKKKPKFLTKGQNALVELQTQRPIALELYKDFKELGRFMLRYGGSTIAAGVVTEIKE
UniProt Q5T447: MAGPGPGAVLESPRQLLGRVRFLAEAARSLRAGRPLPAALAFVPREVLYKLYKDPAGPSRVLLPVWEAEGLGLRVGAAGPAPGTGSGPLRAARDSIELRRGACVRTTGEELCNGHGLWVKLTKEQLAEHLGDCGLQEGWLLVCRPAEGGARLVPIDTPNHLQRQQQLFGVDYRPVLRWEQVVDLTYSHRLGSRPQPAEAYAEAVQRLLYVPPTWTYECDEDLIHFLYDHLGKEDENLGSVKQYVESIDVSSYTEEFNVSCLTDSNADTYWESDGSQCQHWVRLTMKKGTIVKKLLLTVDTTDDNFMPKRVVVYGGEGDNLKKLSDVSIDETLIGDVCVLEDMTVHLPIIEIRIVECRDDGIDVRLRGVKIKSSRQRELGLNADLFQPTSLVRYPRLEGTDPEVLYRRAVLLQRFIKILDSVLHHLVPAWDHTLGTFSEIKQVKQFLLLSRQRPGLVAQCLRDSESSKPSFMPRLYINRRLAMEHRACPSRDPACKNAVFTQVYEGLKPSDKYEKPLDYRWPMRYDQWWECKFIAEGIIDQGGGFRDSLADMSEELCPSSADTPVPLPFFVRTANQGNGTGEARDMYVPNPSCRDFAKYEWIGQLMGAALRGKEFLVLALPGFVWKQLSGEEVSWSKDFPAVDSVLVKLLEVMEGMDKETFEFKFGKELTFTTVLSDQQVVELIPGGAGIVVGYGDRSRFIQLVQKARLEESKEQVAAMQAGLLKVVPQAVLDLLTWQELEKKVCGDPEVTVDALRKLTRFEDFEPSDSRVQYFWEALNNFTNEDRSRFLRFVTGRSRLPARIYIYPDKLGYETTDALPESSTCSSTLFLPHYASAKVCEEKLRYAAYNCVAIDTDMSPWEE
UniProt Q9UBN7: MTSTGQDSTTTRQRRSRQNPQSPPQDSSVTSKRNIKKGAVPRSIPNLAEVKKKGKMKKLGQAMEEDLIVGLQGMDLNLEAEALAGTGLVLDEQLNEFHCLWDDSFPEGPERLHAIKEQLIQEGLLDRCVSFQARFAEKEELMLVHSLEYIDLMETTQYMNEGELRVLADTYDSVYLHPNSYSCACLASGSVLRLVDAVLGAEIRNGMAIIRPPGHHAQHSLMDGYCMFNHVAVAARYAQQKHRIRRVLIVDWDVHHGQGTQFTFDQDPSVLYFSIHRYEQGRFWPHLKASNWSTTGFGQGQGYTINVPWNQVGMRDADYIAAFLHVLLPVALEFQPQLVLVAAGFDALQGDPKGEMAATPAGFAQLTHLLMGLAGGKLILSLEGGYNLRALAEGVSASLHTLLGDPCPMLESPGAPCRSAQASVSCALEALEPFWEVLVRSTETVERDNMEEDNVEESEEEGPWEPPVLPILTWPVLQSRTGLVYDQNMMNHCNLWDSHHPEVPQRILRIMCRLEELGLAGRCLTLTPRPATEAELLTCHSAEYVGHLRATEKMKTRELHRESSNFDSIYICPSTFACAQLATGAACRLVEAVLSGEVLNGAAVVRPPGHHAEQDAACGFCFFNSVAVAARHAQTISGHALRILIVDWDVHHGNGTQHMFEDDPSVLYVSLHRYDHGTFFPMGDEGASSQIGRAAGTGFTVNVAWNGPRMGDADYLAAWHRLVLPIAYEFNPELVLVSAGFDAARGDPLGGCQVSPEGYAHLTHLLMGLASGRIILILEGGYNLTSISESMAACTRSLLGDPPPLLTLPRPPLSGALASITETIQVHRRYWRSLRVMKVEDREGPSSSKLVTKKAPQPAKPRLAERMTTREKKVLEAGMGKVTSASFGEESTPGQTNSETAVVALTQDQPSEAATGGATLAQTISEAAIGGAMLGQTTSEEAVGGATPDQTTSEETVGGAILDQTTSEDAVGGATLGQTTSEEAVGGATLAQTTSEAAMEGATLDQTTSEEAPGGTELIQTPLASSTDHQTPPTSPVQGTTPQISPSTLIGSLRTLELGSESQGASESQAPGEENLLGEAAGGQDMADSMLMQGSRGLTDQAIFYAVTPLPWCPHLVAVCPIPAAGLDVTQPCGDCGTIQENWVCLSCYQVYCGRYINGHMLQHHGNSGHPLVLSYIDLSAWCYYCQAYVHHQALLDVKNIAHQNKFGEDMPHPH
UniProt Q92769, whole entry, looked up: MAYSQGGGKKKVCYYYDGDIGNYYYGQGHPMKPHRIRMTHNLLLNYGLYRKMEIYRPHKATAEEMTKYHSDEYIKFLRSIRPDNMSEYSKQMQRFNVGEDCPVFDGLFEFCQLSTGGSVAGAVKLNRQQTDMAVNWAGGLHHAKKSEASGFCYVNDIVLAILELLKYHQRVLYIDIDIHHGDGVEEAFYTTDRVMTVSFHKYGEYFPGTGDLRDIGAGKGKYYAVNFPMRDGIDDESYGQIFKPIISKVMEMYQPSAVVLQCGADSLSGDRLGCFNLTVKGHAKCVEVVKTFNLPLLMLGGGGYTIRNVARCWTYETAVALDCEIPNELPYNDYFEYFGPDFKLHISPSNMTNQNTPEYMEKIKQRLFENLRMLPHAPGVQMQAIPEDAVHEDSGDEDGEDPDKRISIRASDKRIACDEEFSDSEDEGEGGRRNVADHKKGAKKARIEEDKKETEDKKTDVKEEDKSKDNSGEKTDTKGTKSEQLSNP
UniProt Q7Z4Q2: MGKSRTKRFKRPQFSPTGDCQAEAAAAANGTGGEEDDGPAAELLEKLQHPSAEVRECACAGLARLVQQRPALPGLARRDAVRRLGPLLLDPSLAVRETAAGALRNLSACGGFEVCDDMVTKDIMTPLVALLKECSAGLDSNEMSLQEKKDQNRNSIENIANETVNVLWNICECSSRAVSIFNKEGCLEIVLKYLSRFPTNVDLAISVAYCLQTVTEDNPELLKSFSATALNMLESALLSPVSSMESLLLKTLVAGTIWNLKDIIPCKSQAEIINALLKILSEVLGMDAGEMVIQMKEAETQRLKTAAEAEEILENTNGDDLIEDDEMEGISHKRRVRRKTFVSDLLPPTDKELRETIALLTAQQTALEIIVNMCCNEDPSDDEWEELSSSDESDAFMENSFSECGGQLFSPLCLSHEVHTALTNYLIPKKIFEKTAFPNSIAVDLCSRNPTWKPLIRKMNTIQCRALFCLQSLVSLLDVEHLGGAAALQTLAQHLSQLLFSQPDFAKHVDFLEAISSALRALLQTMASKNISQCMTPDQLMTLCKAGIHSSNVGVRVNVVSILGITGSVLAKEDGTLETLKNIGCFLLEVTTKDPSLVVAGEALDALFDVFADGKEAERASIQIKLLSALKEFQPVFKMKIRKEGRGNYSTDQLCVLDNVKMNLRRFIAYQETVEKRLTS

Compound: CC1Cc2ccccc2N1C(=O)C1CCCN(C1)C(=O)CCl (mixture of isomers) [TRIM25 ligand 11 (diastereomer mixture)]
Assay: probe-labelled cysteine peptide fold change vs DMSO (competition) (log2 fold change); higher = less target engagement (more negative = stronger competition)
Settings: THP-1, incubation time: 4 h
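Note: competitive chemoproteomic profiling in live THP-1 cells with an iodoacetamide desthiobiotin (IA-DTB) probe, comparing probe-labelled peptide intensities in compound-treated cells against DMSO-treated controls.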

| Target | probe-labelled cysteine peptide fold change (10 µM) | probe-labelled cysteine peptide fold change (50 µM) |
| --- | --- | --- |
| HDGF_P51858_108_KSCVEEPEPEPEAAEGDGDKK (UniProt P51858) | -0.541 | -0.677 |
| HAUS6_Q7Z4H7_185_QDCVTQK (UniProt Q7Z4H7) | 0.0137 | 0.127 |
| HDGF_P51858_108_SCVEEPEPEPEAAEGDGDKK (UniProt P51858) | -0.212 | -0.27 |
| HDAC3_O15379_268_LGCFNLSIR (UniProt O15379) | -0.0735 | -0.0229 |
| HINT2_Q9BX68_75_SLPADILYEDQQCLVFR (UniProt Q9BX68) | 0.0654 | -0.102 |
| HERC5_Q9UII4_892_MCDEDIIK (UniProt Q9UII4) | 0.0127 | -0.0691 |
| HCK_P08631_234_GNDGLCQK (UniProt P08631) | 0.0165 | -0.065 |
| HLA-A_P01891_363_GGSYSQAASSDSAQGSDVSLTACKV (UniProt P01891) | 0.000689 | -0.0625 |
| HERC2_O95714_3193_GGSEGCNIPQNIER (UniProt O95714) | 0.0878 | -0.0956 |
| HELB_Q8NG08_350_SCVFPYDLYHAER (UniProt Q8NG08) | -0.151 | 0.0954 |
| HK3_P52790_269_VCVSVEWGSFSDDGALGPVLTTFDHTLDHESLNPGAQR (UniProt P52790) | 0.242 | -0.161 |
| HGS_O14964_75_NCGQTVHDEVANK (UniProt O14964) | 0.0888 | 0.168 |
| HIGD2A_Q9BW72_53_TRENPVVPIGCLATAAALTYGLYSFHR (UniProt Q9BW72) | 0.153 | 0.158 |
| HCCS_P53701_178_WEALHAAECPCGPSLIR (UniProt P53701) | 0.00235 | -0.016 |
| HGH1_Q9BTY7_227_NCCFEHR (UniProt Q9BTY7) | -0.00541 | 0.166 |
| HELZ_P42694_80_NYVQADEDCR (UniProt P42694) | 0.0578 | -0.0565 |
| HBS1L_Q9Y450_529_LLAMPPNETCTVK (UniProt Q9Y450) | 0.0519 | 0.0298 |
| HERC1_Q15751_1991_LFSLLSDCMWETPIAQAK (UniProt Q15751) | 0.0771 | -0.277 |
| HDAC8_Q9BY41_153_KDEASGFCYLNDAVLGILR (UniProt Q9BY41) | -0.0445 | 0.0504 |
| HECTD1_Q9ULT8_254_MAAAGGTVSGPSSACKPGR (UniProt Q9ULT8) | 0.0653 | -0.071 |
| HECTD1_Q9ULT8_1389_KGSSSSVCSVASSSDISLGSTK (UniProt Q9ULT8) | 0.0993 | -0.225 |

| Target | probe-labelled cysteine peptide fold change (10 µM) | probe-labelled cysteine peptide fold change (50 µM) |
| --- | --- | --- |
| HAUS7_Q99871_50_DLNCPFLEGLYITEPK (UniProt Q99871) | 0.142 | 0.0811 |
| HDHD5_Q9BXW7_392_DLCFSPGLMEASHVVNDVNEAVQLVFRK (UniProt Q9BXW7) | -0.375 | -0.495 |
| HK1_P19367_886_CNVSFLLSEDGSGK (UniProt P19367) | -0.12 | 0.0454 |
| HK2_P52789_386_SASLCAATLAAVLQR (UniProt P52789) | -0.197 | 0.107 |
| HEATR5B_Q9P2D3_1693_EACTVLGEGGDSGGLIPGK (UniProt Q9P2D3) | 0.31 | 0.173 |
| HEATR1_Q9H583_631_SGICSLHPLLR (UniProt Q9H583) | 0.186 | 0.109 |
| HBS1L_Q9Y450_491_LCVSDVFK (UniProt Q9Y450) | 0.0459 | 0.0956 |
| HDGFL2_Q7Z4V5-2_631_CGSSEDLHDVR (UniProt Q7Z4V5) | -0.145 | -0.267 |
| HEATR5B_Q9P2D3_870_CAAGEALGR (UniProt Q9P2D3) | -0.0752 | -0.0703 |
| HIRA_P54198_867_QDSLAQCADFR (UniProt P54198) | 0.0563 | -0.0265 |
| HEBP1_Q9NRV9_168_GDIYFCTGYDPPMKPYGR (UniProt Q9NRV9) | -0.405 | -0.374 |
| HERC2_O95714_4204_VECGSQFSVALTK (UniProt O95714) | 0.0159 | 0.00567 |
| HEATR5B_Q9P2D3_471_CVAVALPFQLTPFLDR (UniProt Q9P2D3) | -0.108 | 0.0569 |
| HLTF_Q14527_812_NDIHEDNLLECPPEELAR (UniProt Q14527) | 0.229 | 0.134 |
| HLA-E_P13747_280_YTCHVQHEGLPEPVTLR (UniProt P13747) | -0.022 | 0.000676 |
| HCFC1_P51610_1872_VAGINACGR (UniProt P51610) | 0.0399 | 0.053 |
| HECTD3_Q5T447_744_VCGDPEVTVDALR (UniProt Q5T447) | 0.0618 | 0.0766 |
| HGS_O14964_190_ACGQIFCGK (UniProt O14964) | -0.0284 | -0.0925 |
| HDAC6_Q9UBN7_417_ALAEGVSASLHTLLGDPCPMLESPGAPCR (UniProt Q9UBN7) | -0.0346 | -0.0275 |
| HDAC2_Q92769_13_KVCYYYDGDIGNYYYGQGHPMKPHR (UniProt Q92769) | -0.431 | -0.357 |
| HELZ_P42694_100_AVLCCMQLK (UniProt P42694) | -0.0761 | -0.157 |

| Target | probe-labelled cysteine peptide fold change (10 µM) | probe-labelled cysteine peptide fold change (50 µM) |
| --- | --- | --- |
| HAUS7_Q99871_348_KQQGEQICWGGSSSVMSLATK (UniProt Q99871) | -0.105 | -0.293 |
| HEATR3_Q7Z4Q2_464_KMNTIQCR (UniProt Q7Z4Q2) | -0.136 | -0.103 |
| HERC1_Q15751_1941_CSSGIPLVGNLR (UniProt Q15751) | -0.0408 | -0.0993 |
| HAUS6_Q7Z4H7_662_VISDCECVPQK (UniProt Q7Z4H7) | -0.149 | 0.059 |
| HCCS_P53701_66_AYEYVECPIR (UniProt P53701) | -0.0751 | -0.317 |
| HECTD1_Q9ULT8_487_GHSEVVAILQSPGDWMCPVNK (UniProt Q9ULT8) | -0.1 | -0.102 |
| HDAC6_Q9UBN7_539_CLTLTPRPATEAELLTCHSAEYVGHLR (UniProt Q9UBN7) | -0.144 | -0.0793 |
| HECTD3_Q5T447_356_IVECRDDGIDVR (UniProt Q5T447) | 0.0335 | 0.157 |
| HCCS_P53701_176+178_WEALHAAECPCGPSLIR (UniProt P53701) | -0.0972 | -0.18 |
| HAUS8_Q9BT25_182_NLLIMCK (UniProt Q9BT25) | -0.169 | -0.102 |
| HDAC6_Q9UBN7_523+539_CLTLTPRPATEAELLTCHSAEYVGHLR (UniProt Q9UBN7) | -0.39 | -0.153 |
| HERC4_Q5GLZ8_58+60_HTVFVLDDGTVYTCGCNDLGQLGHEK (UniProt Q5GLZ8) | 0.0474 | -0.187 |
| HECTD1_Q9ULT8_1955_DFCEHGTK (UniProt Q9ULT8) | -0.0514 | 0.0886 |
| HERC4_Q5GLZ8_144_SLSDIQIVQVACGYYHSLALSK (UniProt Q5GLZ8) | -0.108 | -0.0712 |
| HECTD1_Q9ULT8_131_VLELICTR (UniProt Q9ULT8) | 0.0591 | 0.175 |
| HAUS6_Q7Z4H7_32_EHLWMYLQALGFEPGPATIACGK (UniProt Q7Z4H7) | 0.11 | -0.0905 |
| HERC4_Q5GLZ8_175_YGQLGLGTDCKK (UniProt Q5GLZ8) | -0.0394 | -0.0946 |
| HK2_P52789_133_GSGTQLFDHIAECLANFMDK (UniProt P52789) | 0.165 | -0.083 |
| HDGF_P51858_108_SCVEEPEPEPEAAEGDGDK (UniProt P51858) | -0.0149 | -0.235 |
| HECTD3_Q5T447_592_DMYVPNPSCR (UniProt Q5T447) | 0.131 | 0.0493 |
| HELB_Q8NG08_127_HICALFLK (UniProt Q8NG08) | -0.086 | 0.0468 |

| Target | probe-labelled cysteine peptide fold change (10 µM) | probe-labelled cysteine peptide fold change (50 µM) |
| --- | --- | --- |
| HDAC1_Q13547_273_LGCFNLTIK (UniProt Q13547) | -0.0483 | 0.18 |
| HEATR1_Q9H583_2048_HLIPCIAQFSVAMADDSLWK (UniProt Q9H583) | 0.378 | 0.121 |
| HIRIP3_Q9BW71_86_RPPTPCSDPER (UniProt Q9BW71) | 0.0927 | -0.00418 |
| HINT3_Q9NQE9_66+73_QDPGTELLHCENEDLICFK (UniProt Q9NQE9) | -0.0938 | -0.404 |
| HECA_Q9UBI9_434_ALPVFEQFPLVDGTLFLSPSRHDEIEYDVPCHLQGR (UniProt Q9UBI9) | 0.409 | 0.382 |
| HEATR3_Q7Z4Q2_173_NSIENIANETVNVLWNICECSSR (UniProt Q7Z4Q2) | 0.0592 | 0.206 |
| HEATR3_Q7Z4Q2_585_NIGCFLLEVTTK (UniProt Q7Z4Q2) | 0.0622 | 0.0683 |
| HEATR1_Q9H583_182_GTLITHCYK (UniProt Q9H583) | 0.0157 | 0.191 |
| HELZ_P42694_601_LPLCEMHYALDR (UniProt P42694) | 0.0449 | 0.0767 |
| HERC2_O95714_4308_VACGSAHTLAWSTSK (UniProt O95714) | 0.238 | -0.0665 |
| HIP1R_O75146_906_VVLHTGKYEELIVCSHEIAASTAQLVAASK (UniProt O75146) | 0.164 | 0.189 |
| HDLBP_Q00341_683_SIMEECGGVHIHFPVEGSGSDTVVIRGPSSDVEK (UniProt Q00341) | -0.0718 | -0.059 |
| HECTD4_Q9Y4D8_3836_ELQNVECVTAVR (UniProt Q9Y4D8) | 0.234 | -0.027 |
| HLCS_P50747_375_EILTTLGLSCDMK (UniProt P50747) | -0.121 | -0.305 |
| HCFC1_P51610_227_KSKLVIYGGMSGCR (UniProt P51610) | 0.179 | 0.475 |
| HDAC2_Q92769_13_VCYYYDGDIGNYYYGQGHPMKPHR (UniProt Q92769) | -0.245 | -0.308 |
| HDAC2_Q92769_13_KVCYYYDGDIGNYYYGQGHPMK (UniProt Q92769) | 0.0694 | -0.0187 |
| HECTD4_Q9Y4D8_3446_CACIDVR (UniProt Q9Y4D8) | 0.0852 | 0.059 |
| HDAC2_Q92769_13_VCYYYDGDIGNYYYGQGHPMK (UniProt Q92769) | 0.0825 | 0.164 |
| HECTD1_Q9ULT8_146_ESGAVFEAGGLNCVLTFIR (UniProt Q9ULT8) | 0.264 | -0.0494 |
